Results deposited as PubChem BioAssay AID1159596 (NIAID, 2016).
The deposit covers 756 reagents; shown is a part drawn at random. 143 of all reagents (19%) count as active. 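Active means the reporter moved past about ±1.5 in either direction; scores are per single siRNA, not per gene; peptidoglycan dose not given.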 Reagents against one gene are numbered here. The record does not give: the amount of reagent.

- Aim: 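Knock-down of 126 toll-like receptor signalling parts, six siRNAs each, on a TNF reporter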 (primary screen)
- System: human THP1 B5 monocytic reporter cells made macrophage-like with PMA
- Reagent: single siRNA against human genes
- Duration: assayed 48 to 72 hours after siRNA transfection; peptidoglycan stimulation lasted 4 hours
- Conditions: Staphylococcus aureus peptidoglycan for 4 hours; dose not given
- Read-out: 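Mean over replicate screens of a robust z per siRNA from the dual luciferase TNF promoter reporter after 4 h peptidoglycan, median/MAD normalised, relative to negative controls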
- Direction: TNF reporter z-score: higher = stronger TNF promoter reporter response to peptidoglycan
- Active means: In these data the active calls have TNF reporter z-score, replicate mean at about -1.5 or lower, or at about 1.5 or higher
- Meaning of the calls: active = reporter shifted beyond cut (either direction); inactive = reporter near control level

{"target": "LBP (lipopolysaccharide binding protein)", "reagent no.": 1, "TNF reporter z-score, replicate mean": -0.631, "Call": "inactive"}
{"target": "LBP (lipopolysaccharide binding protein)", "reagent no.": 2, "TNF reporter z-score, replicate mean": -0.111, "Call": "inactive"}
{"target": "LBP (lipopolysaccharide binding protein)", "reagent no.": 3, "TNF reporter z-score, replicate mean": 1.79, "Call": "active"}
{"target": "LBP (lipopolysaccharide binding protein)", "reagent no.": 4, "TNF reporter z-score, replicate mean": -0.583, "Call": "inactive"}
{"target": "LBP (lipopolysaccharide binding protein)", "reagent no.": 5, "TNF reporter z-score, replicate mean": 0.17, "Call": "inactive"}
{"target": "LBP (lipopolysaccharide binding protein)", "reagent no.": 6, "TNF reporter z-score, replicate mean": 0.156, "Call": "inactive"}
{"target": "IFNB1 (interferon beta 1)", "reagent no.": 1, "TNF reporter z-score, replicate mean": -1.61, "Call": "active"}
{"target": "IFNB1 (interferon beta 1)", "reagent no.": 2, "TNF reporter z-score, replicate mean": -0.152, "Call": "inactive"}
{"target": "IFNB1 (interferon beta 1)", "reagent no.": 3, "TNF reporter z-score, replicate mean": -0.212, "Call": "inactive"}
{"target": "IFNB1 (interferon beta 1)", "reagent no.": 4, "TNF reporter z-score, replicate mean": -0.747, "Call": "inactive"}
{"target": "IFNB1 (interferon beta 1)", "reagent no.": 5, "TNF reporter z-score, replicate mean": -0.587, "Call": "inactive"}
{"target": "IFNB1 (interferon beta 1)", "reagent no.": 6, "TNF reporter z-score, replicate mean": -1.9, "Call": "active"}
{"target": "PIK3CG", "reagent no.": 1, "TNF reporter z-score, replicate mean": -2.33, "Call": "active"}
{"target": "PIK3CG", "reagent no.": 2, "TNF reporter z-score, replicate mean": -0.0341, "Call": "inactive"}
{"target": "PIK3CG", "reagent no.": 3, "TNF reporter z-score, replicate mean": -0.713, "Call": "inactive"}
{"target": "PIK3CG", "reagent no.": 4, "TNF reporter z-score, replicate mean": -0.493, "Call": "inactive"}
{"target": "PIK3CG", "reagent no.": 5, "TNF reporter z-score, replicate mean": 0.539, "Call": "inactive"}
{"target": "PIK3CG", "reagent no.": 6, "TNF reporter z-score, replicate mean": -0.662, "Call": "inactive"}
{"target": "CASP8 (caspase 8)", "reagent no.": 1, "TNF reporter z-score, replicate mean": -0.107, "Call": "inactive"}
{"target": "CASP8 (caspase 8)", "reagent no.": 2, "TNF reporter z-score, replicate mean": -0.164, "Call": "inactive"}
{"target": "CASP8 (caspase 8)", "reagent no.": 3, "TNF reporter z-score, replicate mean": 0.483, "Call": "inactive"}
{"target": "CASP8 (caspase 8)", "reagent no.": 4, "TNF reporter z-score, replicate mean": -0.343, "Call": "inactive"}
{"target": "CASP8 (caspase 8)", "reagent no.": 5, "TNF reporter z-score, replicate mean": 0.54, "Call": "inactive"}
{"target": "CASP8 (caspase 8)", "reagent no.": 6, "TNF reporter z-score, replicate mean": -0.593, "Call": "inactive"}

Active calls (from the list above):
{"target": "LBP (lipopolysaccharide binding protein)", "reagent no.": 3, "TNF reporter z-score, replicate mean": 1.79, "Call": "active"}
{"target": "IFNB1 (interferon beta 1)", "reagent no.": 1, "TNF reporter z-score, replicate mean": -1.61, "Call": "active"}
{"target": "IFNB1 (interferon beta 1)", "reagent no.": 6, "TNF reporter z-score, replicate mean": -1.9, "Call": "active"}
{"target": "PIK3CG", "reagent no.": 1, "TNF reporter z-score, replicate mean": -2.33, "Call": "active"}

The results go on:
{"target": "LY86 (lymphocyte antigen 86)", "reagent no.": 1, "TNF reporter z-score, replicate mean": -0.376, "Call": "inactive"}
{"target": "LY86 (lymphocyte antigen 86)", "reagent no.": 2, "TNF reporter z-score, replicate mean": -0.71, "Call": "inactive"}
{"target": "LY86 (lymphocyte antigen 86)", "reagent no.": 3, "TNF reporter z-score, replicate mean": 0.0326, "Call": "inactive"}
{"target": "LY86 (lymphocyte antigen 86)", "reagent no.": 4, "TNF reporter z-score, replicate mean": -2.01, "Call": "active"}
{"target": "LY86 (lymphocyte antigen 86)", "reagent no.": 5, "TNF reporter z-score, replicate mean": -0.0889, "Call": "inactive"}
{"target": "LY86 (lymphocyte antigen 86)", "reagent no.": 6, "TNF reporter z-score, replicate mean": 0.0606, "Call": "inactive"}
{"target": "TAB3 (TGF-beta activated kinase 1 (MAP3K7) binding protein 3)", "reagent no.": 1, "TNF reporter z-score, replicate mean": -0.425, "Call": "inactive"}
{"target": "TAB3 (TGF-beta activated kinase 1 (MAP3K7) binding protein 3)", "reagent no.": 2, "TNF reporter z-score, replicate mean": 0.106, "Call": "inactive"}
{"target": "TAB3 (TGF-beta activated kinase 1 (MAP3K7) binding protein 3)", "reagent no.": 3, "TNF reporter z-score, replicate mean": -0.626, "Call": "inactive"}
{"target": "TAB3 (TGF-beta activated kinase 1 (MAP3K7) binding protein 3)", "reagent no.": 4, "TNF reporter z-score, replicate mean": -0.0235, "Call": "inactive"}
{"target": "TAB3 (TGF-beta activated kinase 1 (MAP3K7) binding protein 3)", "reagent no.": 5, "TNF reporter z-score, replicate mean": -0.0754, "Call": "inactive"}
{"target": "TAB3 (TGF-beta activated kinase 1 (MAP3K7) binding protein 3)", "reagent no.": 6, "TNF reporter z-score, replicate mean": -0.932, "Call": "inactive"}
{"target": "TLR4 (toll like receptor 4)", "reagent no.": 1, "TNF reporter z-score, replicate mean": 0.816, "Call": "inactive"}
{"target": "TLR4 (toll like receptor 4)", "reagent no.": 2, "TNF reporter z-score, replicate mean": -0.292, "Call": "inactive"}
{"target": "TLR4 (toll like receptor 4)", "reagent no.": 3, "TNF reporter z-score, replicate mean": -0.393, "Call": "inactive"}
{"target": "TLR4 (toll like receptor 4)", "reagent no.": 4, "TNF reporter z-score, replicate mean": 0.574, "Call": "inactive"}
{"target": "TLR4 (toll like receptor 4)", "reagent no.": 5, "TNF reporter z-score, replicate mean": -0.327, "Call": "inactive"}
{"target": "TLR4 (toll like receptor 4)", "reagent no.": 6, "TNF reporter z-score, replicate mean": -1.59, "Call": "active"}
{"target": "CD180 (CD180 molecule)", "reagent no.": 1, "TNF reporter z-score, replicate mean": 0.113, "Call": "inactive"}
{"target": "CD180 (CD180 molecule)", "reagent no.": 2, "TNF reporter z-score, replicate mean": 0.235, "Call": "inactive"}
{"target": "CD180 (CD180 molecule)", "reagent no.": 3, "TNF reporter z-score, replicate mean": -1.99, "Call": "active"}
{"target": "CD180 (CD180 molecule)", "reagent no.": 4, "TNF reporter z-score, replicate mean": 0.69, "Call": "inactive"}
{"target": "CD180 (CD180 molecule)", "reagent no.": 5, "TNF reporter z-score, replicate mean": -0.0112, "Call": "inactive"}
{"target": "CD180 (CD180 molecule)", "reagent no.": 6, "TNF reporter z-score, replicate mean": 1.04, "Call": "inactive"}
